Laboratory results published in patent US20210401931A1, “METHODS AND MATERIALS FOR TREATING CANCER” (Mayo Foundation for Medical Education and Research, priority 2018, published 2021).
These are yes or no findings as the source states them, for the method shown. For some assays here: In cells and extracts the contact can be indirect. Some results given as binding are weak or reduced against the parent protein; the word gives no strength. For some assays here: Sequences can lack the tags named with a protein.

By UniProt entry, the sequences of proteins in these tests, tags left out. Where a name states a change or a piece, a line headed by the entry shows the natural chain unless it says otherwise.
UniProt Q04206: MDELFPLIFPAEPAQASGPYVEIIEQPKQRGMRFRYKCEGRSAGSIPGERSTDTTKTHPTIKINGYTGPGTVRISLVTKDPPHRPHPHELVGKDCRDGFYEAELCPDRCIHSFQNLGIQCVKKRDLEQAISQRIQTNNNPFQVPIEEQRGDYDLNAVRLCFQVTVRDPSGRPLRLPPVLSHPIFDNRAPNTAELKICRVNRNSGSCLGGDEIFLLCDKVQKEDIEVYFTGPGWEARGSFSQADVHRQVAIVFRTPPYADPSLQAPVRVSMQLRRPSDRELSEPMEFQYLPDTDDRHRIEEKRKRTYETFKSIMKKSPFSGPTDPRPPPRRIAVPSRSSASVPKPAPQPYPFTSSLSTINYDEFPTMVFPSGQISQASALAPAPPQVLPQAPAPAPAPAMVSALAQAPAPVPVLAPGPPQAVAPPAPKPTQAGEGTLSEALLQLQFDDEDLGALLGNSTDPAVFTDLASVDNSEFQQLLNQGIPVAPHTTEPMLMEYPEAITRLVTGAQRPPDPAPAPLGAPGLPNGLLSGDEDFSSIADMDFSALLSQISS

What was measured:
[1] = target: T1, HA-RB wild-type (pCMV HA hRB-wt) (human) (UniProt P06400); assay: GST pull down of HA-RB from transfected PC-3 lysate (FIG. 3D)
T1 sequence (looked up): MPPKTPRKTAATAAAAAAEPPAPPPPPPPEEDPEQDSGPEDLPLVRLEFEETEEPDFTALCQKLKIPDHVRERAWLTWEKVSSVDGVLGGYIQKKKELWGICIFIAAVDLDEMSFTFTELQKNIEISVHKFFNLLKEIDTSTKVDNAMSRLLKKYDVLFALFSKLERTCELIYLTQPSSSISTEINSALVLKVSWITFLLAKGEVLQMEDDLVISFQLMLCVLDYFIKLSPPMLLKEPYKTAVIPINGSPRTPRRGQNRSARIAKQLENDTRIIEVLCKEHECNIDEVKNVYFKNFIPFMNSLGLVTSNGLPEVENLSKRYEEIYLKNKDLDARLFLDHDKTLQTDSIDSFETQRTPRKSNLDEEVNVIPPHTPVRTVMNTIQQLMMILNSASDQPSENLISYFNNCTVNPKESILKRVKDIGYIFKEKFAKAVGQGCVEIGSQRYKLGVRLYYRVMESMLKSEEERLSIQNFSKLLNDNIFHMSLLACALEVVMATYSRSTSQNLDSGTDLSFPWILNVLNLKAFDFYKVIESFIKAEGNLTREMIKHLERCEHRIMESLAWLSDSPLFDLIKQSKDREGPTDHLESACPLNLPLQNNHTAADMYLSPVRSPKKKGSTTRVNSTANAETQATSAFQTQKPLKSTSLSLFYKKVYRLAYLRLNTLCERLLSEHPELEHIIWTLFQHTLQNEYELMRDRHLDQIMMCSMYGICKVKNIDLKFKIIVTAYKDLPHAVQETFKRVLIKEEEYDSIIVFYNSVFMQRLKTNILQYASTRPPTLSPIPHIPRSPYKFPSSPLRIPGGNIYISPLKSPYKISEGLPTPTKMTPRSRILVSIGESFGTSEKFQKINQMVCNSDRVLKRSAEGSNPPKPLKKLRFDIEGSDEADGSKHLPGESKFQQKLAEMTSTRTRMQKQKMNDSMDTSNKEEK

[2] = target: T2, retinoblastoma protein RB (endogenous) (human, UniProt P06400 2-928); assay: GST pull down from PC-3 whole cell lysate, western blot (FIG. 2B)
T2 construct: Endogenous protein of cell lysates, phosphorylation state as in the cells; also called RB1; endogenous RB
T2 sequence (looked up): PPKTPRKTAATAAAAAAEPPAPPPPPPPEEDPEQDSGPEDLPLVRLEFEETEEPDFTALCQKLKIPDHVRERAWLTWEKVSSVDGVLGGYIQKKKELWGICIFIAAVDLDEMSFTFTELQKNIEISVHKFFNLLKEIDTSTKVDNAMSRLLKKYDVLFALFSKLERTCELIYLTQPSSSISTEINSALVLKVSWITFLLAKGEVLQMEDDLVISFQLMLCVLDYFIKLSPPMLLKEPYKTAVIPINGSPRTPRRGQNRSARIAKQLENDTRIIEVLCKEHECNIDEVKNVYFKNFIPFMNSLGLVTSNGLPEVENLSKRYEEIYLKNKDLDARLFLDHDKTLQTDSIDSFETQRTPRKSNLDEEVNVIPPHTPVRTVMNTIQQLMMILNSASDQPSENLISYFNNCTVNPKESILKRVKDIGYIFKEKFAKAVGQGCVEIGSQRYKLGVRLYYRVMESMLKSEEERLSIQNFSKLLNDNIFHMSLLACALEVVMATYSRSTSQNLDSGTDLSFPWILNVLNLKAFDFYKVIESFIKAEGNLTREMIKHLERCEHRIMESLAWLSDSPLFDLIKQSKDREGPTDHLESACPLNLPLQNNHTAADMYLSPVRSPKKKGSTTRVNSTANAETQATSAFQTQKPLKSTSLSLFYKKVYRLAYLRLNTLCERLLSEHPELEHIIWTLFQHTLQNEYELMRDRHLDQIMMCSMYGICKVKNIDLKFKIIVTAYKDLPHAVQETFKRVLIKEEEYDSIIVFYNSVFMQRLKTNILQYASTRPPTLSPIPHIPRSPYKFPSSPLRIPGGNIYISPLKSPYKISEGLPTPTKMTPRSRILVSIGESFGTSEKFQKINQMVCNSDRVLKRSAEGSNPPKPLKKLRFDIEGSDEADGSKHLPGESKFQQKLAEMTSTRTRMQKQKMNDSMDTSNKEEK

[3] = target: T2, retinoblastoma protein RB (endogenous); assay: GST pull down from PC-3 whole cell lysate, western blot
[4] = target: T3, RB-N expressed in transfected PC-3 cells (human) (UniProt P06400); assay: GST pull down from transfected PC-3 whole cell lysate (FIG. 15, lower panel)
T3 sequence (looked up): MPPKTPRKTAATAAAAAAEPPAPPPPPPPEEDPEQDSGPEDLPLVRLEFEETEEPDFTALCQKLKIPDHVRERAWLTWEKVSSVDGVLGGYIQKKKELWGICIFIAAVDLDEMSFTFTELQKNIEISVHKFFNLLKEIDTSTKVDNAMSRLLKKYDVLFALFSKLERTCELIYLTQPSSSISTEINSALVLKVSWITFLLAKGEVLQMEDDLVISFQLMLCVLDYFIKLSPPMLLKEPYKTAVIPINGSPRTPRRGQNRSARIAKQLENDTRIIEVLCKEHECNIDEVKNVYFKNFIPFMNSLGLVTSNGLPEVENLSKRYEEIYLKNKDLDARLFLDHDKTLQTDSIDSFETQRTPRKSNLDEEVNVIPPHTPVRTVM

p65 NFκB protein [5] = target: T4, p65 NFκB protein (human, UniProt Q04206 1-551); assay: co-IP from transfected 293T cells (FIG. 10E)
T4 construct: The same entry is used for endogenous p65 and for in vitro translated p65; which one stood in the assay is told under assay; also called endogenous p65; in vitro transcribed and translated p65 (pCMV4 p65)

p65 NFκB protein [6] = target: T4, p65 NFκB protein; assay: co-IP from transfected cells (FIG. 10)
GST-p65-N (human) [7] = target: GST-p65-N (human) (UniProt Q04206); assay: in vitro protein binding assay (FIG. 10F)
GST-p65-N (human) [8] = target: GST-p65-N (human) (UniProt Q04206); assay: in vitro protein binding assay (FIG. 10)
[9] = target: T3, RB-N expressed in transfected PC-3 cells (human); assay: GST pull down from transfected PC-3 whole cell lysate (FIG. 19G, lower panel)

Molecule: GST-p65-N (from UniProt Q04206 1-306)
- binding [1]: binds
- binding [2]: binds
- binding [3]: binds
- binding [4]: binds

Molecule: NGDPRDPRRGQNRSARIAKQL (peptide, UniProt P06400 247-267, looked up, not shown: small tags and cut ends) [SFB-tagged RL-S249D/T252D peptide]
- binding (p65 NFκB protein [5]): binds
- binding (p65 NFκB protein [6]): binds

Molecule: NGDPRDPRRGQNRSARIAKQL (peptide, UniProt P06400 247-267, looked up) [in vitro transcribed and translated RL-S249D/T252D peptide]
- binding (GST-p65-N (human) [7]): binds
- binding (GST-p65-N (human) [8]): binds

Molecule: NGAPRAPRRGQNRSARIAKQL (peptide, UniProt P06400 247-267, looked up) [in vitro transcribed and translated RL-S249A/T252A peptide]
- binding (GST-p65-N (human) [7]): binds
- binding (GST-p65-N (human) [8]): binds

B1: GST-EID1-N wild-type (protein, UniProt Q9Y6B2 1-177, looked up, not shown: a dimerising Fc or GST)
chain: MSEMAELSELYEESSDLQMDVMPGEGDLPQMEVGSGSRELSLRPSRSGAQQLEEEGPMEEEEAQPMAAPEGKRSLANGPNAGEQPGQVAGADFESEDEGEEFDDWEDDYDYPEEEQLSGAGYRVSAALEEADKMFLRTREPALDGGFQMHYEKTPFDQLAFIEELFSLMVVNRLTEE
- binding [9]: binds
